Experimental data: the supplement of paper PMC8728848
Some of the results follow.

Legend:
Assay in all cases: glycan array binding signal (z-score within array); higher = stronger binding
Details in all cases: glycan notation: IUPAC condensed, linker removed
[1] = target: Gal(b1-3)GalNAc(a1-3)[Fuc(a1-2)]Gal(b1-4)GlcNAc
Outline: (§1)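 Glycan array data were curated from 3228 arrays in the Consortium for Functional Glycomics database and kept only where the protein sequence was available. Glycan names were converted to IUPAC-condensed notation, and columns mapping to the same glycan were averaged. The binding signal is a within-array Z-score, averaged across arrays of the same protein sequence at different concentrations or buffers and across linkers. Negative Z-scores can be read as non-binding.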

[2] = target: Gal(b1-3)GalNAc(b1-3)Gal(a1-4)Gal(b1-4)Glc
Outline: as §1

[3] = target: Gal(b1-3)GalNAc(b1-4)Gal(b1-4)Glc
Outline: as §1

[4] = target: Gal(b1-3)GalNAc(b1-4)[Neu5Ac(a2-3)]Gal(b1-4)Glc
Outline: as §1

Gal(b1-3)GlcNAc = target: Gal(b1-3)GlcNAc
Outline: as §1

[5] = target: Gal(b1-3)GlcNAc(a1-6)Gal(b1-4)GlcNAc
Outline: as §1

[6] = target: Gal(b1-3)GlcNAc(b1-2)Man(a1-3)[Gal(b1-3)GlcNAc(b1-2)Man(a1-6)]Man(b1-4)GlcNAc(b1-4)GlcNAc
Outline: as §1

[7] = target: Gal(b1-3)GlcNAc(b1-2)Man(a1-3)[Gal(b1-3)GlcNAc(b1-2)Man(a1-6)]Man(b1-4)GlcNAc(b1-4)[Fuc(a1-6)]GlcNAc
Outline: as §1

[8] = target: Gal(b1-3)GlcNAc(b1-3)Gal(b1-3)GlcNAc
Outline: as §1

[9] = target: Gal(b1-3)GlcNAc(b1-3)Gal(b1-4)Glc
Outline: as §1

[10] = target: Gal(b1-3)GlcNAc(b1-3)Gal(b1-4)GlcNAc
Outline: as §1

[11] = target: Gal(b1-3)GlcNAc(b1-3)Gal(b1-4)GlcNAc(b1-6)[Gal(b1-3)GlcNAc(b1-3)]Gal(b1-4)Glc
Outline: as §1

[12] = target: Gal(b1-3)GlcNAc(b1-3)Gal(b1-4)[Fuc(a1-3)]GlcNAc(b1-6)[Gal(b1-3)GlcNAc(b1-3)]Gal(b1-4)Glc
Outline: as §1

[13] = target: Gal(b1-3)GlcNAc(b1-3)GalNAc
Outline: as §1

[14] = target: Gal(b1-3)GlcNAc(b1-6)Gal(b1-4)GlcNAc
Outline: as §1

[15] = target: Gal(b1-3)[Fuc(a1-4)]GlcNAc
Outline: as §1

[16] = target: Gal(b1-3)[Fuc(a1-4)]GlcNAc(b1-2)Man(a1-3)[Gal(b1-3)[Fuc(a1-4)]GlcNAc(b1-2)Man(a1-6)]Man(b1-4)GlcNAc(b1-4)GlcNAc
Outline: as §1

[17] = target: Gal(b1-3)[Fuc(a1-4)]GlcNAc(b1-2)Man(a1-3)[Gal(b1-3)[Fuc(a1-4)]GlcNAc(b1-2)Man(a1-6)]Man(b1-4)GlcNAc(b1-4)[Fuc(a1-6)]GlcNAc
Outline: as §1

[18] = target: Gal(b1-3)[Fuc(a1-4)]GlcNAc(b1-3)Gal(b1-3)[Fuc(a1-4)]GlcNAc
Outline: as §1

[19] = target: Gal(b1-3)[Fuc(a1-4)]GlcNAc(b1-3)Gal(b1-4)GlcNAc
Outline: as §1

[20] = target: Gal(b1-3)[Fuc(a1-4)]GlcNAc(b1-3)Gal(b1-4)[Fuc(a1-3)]GlcNAc
Outline: as §1

[21] = target: Gal(b1-3)[GlcNAc(b1-6)]GalNAc
Outline: as §1

[22] = target: Gal(b1-3)[Neu5Ac(a2-6)]GalNAc
Outline: as §1

[23] = target: Gal(b1-3)[Neu5Ac(a2-6)]GlcNAc(b1-6)Gal(b1-4)Glc
Outline: as §1

[24] = target: Gal(b1-3)[Neu5Ac(b2-6)]GalNAc
Outline: as §1

[25] = target: Gal(b1-4)GalNAc(a1-3)[Fuc(a1-2)]Gal(b1-4)GlcNAc
Outline: as §1

[26] = target: Gal(b1-4)GalNAc(b1-3)[Fuc(a1-2)]Gal(b1-4)GlcNAc
Outline: as §1

Gal(b1-4)Glc = target: Gal(b1-4)Glc
Outline: as §1

Gal(b1-4)Glc6S = target: Gal(b1-4)Glc6S
Outline: as §1

Gal(b1-4)GlcNAc = target: Gal(b1-4)GlcNAc
Outline: as §1

[27] = target: Gal(b1-4)GlcNAc(a1-6)Gal(b1-4)GlcNAc
Outline: as §1

[28] = target: Gal(b1-4)GlcNAc(b1-2)Man(a1-3)Man(b1-4)GlcNAc(b1-4)GlcNAc
Outline: as §1

[29] = target: Gal(b1-4)GlcNAc(b1-2)Man(a1-3)[Gal(b1-4)GlcNAc(b1-2)Man(a1-6)]Man(b1-4)GlcNAc(b1-4)GlcNAc
Outline: as §1

[30] = target: Gal(b1-4)GlcNAc(b1-2)Man(a1-3)[Gal(b1-4)GlcNAc(b1-2)Man(a1-6)]Man(b1-4)GlcNAc(b1-4)[Fuc(a1-6)]GlcNAc
Outline: as §1

[31] = target: Gal(b1-4)GlcNAc(b1-2)Man(a1-3)[GlcNAc(b1-2)Man(a1-6)]Man(b1-4)GlcNAc(b1-4)GlcNAc
Outline: as §1

[32] = target: Gal(b1-4)GlcNAc(b1-2)Man(a1-3)[Man(a1-6)]Man(b1-4)GlcNAc(b1-4)GlcNAc
Outline: as §1

[33] = target: Gal(b1-4)GlcNAc(b1-2)Man(a1-6)Man(b1-4)GlcNAc(b1-4)GlcNAc
Outline: as §1

B1: PEB4 (Campylobacter jejuni), A1VYV6 (protein)
chain: MKKFSLVAAALIAGVALNVNAATVATVNGKSISDAEVSEFFAPMLRGQDFKTLPDNQKKALIQQYIMQDLILQDAKKQNLEKDPLYTKELDRAKDAILVNVYQEKILNTIKIDAAKVKAFYDQNKDKYVKPARVQAKHILVATEKEAKDIINELKGLKGKELDAKFSELAKEKSIDPGSKNQGGELGWFDQSTMVKPFTDAAFALKNGTITTTPVKTNFGYHVILKENSQAKGQIKFDEVKQGIENGLKFEEFKKVINQKGQDLLNSAKVEYK
For B1, the “glycan array binding signal (z-score)” value [1] was 0.271, the “glycan array binding signal (z-score)” value [2] was 0.113 and the “glycan array binding signal (z-score)” value [3] was -0.214. For the same binder, the “glycan array binding signal (z-score)” value [4] was -0.512, the “glycan array binding signal (z-score)” value (Gal(b1-3)GlcNAc) was -0.269 and the “glycan array binding signal (z-score)” value [5] was 2.54. The “glycan array binding signal (z-score)” value [6] was -0.056, the “glycan array binding signal (z-score)” value [7] was 0.11 and the “glycan array binding signal (z-score)” value [8] was -0.625. The “glycan array binding signal (z-score)” value [9] was -0.744, the “glycan array binding signal (z-score)” value [10] was 0.262 and the “glycan array binding signal (z-score)” value [11] was -0.406. The “glycan array binding signal (z-score)” value [12] was 0.4, the “glycan array binding signal (z-score)” value [13] was 0.062 and the “glycan array binding signal (z-score)” value [14] was -1.16. For the same binder, the “glycan array binding signal (z-score)” value [15] was -0.557, the “glycan array binding signal (z-score)” value [16] was 1.2 and the “glycan array binding signal (z-score)” value [17] was 0.14. The “glycan array binding signal (z-score)” value [18] was 2.99, the “glycan array binding signal (z-score)” value [19] was -0.586 and the “glycan array binding signal (z-score)” value [20] was 0.387. The “glycan array binding signal (z-score)” value [21] was -0.623, the “glycan array binding signal (z-score)” value [22] was -1.29 and the “glycan array binding signal (z-score)” value [23] was 0.34. The “glycan array binding signal (z-score)” value [24] was -0.878, the “glycan array binding signal (z-score)” value [25] was 2.05 and the “glycan array binding signal (z-score)” value [26] was -0.25. The “glycan array binding signal (z-score)” value (Gal(b1-4)Glc) was -0.356, the “glycan array binding signal (z-score)” value (Gal(b1-4)Glc6S) was -0.287 and the “glycan array binding signal (z-score)” value (Gal(b1-4)GlcNAc) was -0.852. The “glycan array binding signal (z-score)” value [27] was -0.22, the “glycan array binding signal (z-score)” value [28] was -0.258 and the “glycan array binding signal (z-score)” value [29] was -0.037. The “glycan array binding signal (z-score)” value [30] was -0.356, the “glycan array binding signal (z-score)” value [31] was -0.111 and the “glycan array binding signal (z-score)” value [32] was -0.5. For the same binder, the “glycan array binding signal (z-score)” value [33] was -0.308.
